The subject of test [1] is male NMRI mice. The test can be described thus: isolation-induced aggressive behaviour. In kind it is in vivo. The following applies: Mus musculus, sc, 0.5 h, read-out: ED50 (dose inhibiting aggressive behaviour among 50 percent of the pairs). The text has this: Male mice subjected to prolonged isolation develop aggressive behaviour against each other when paired (Yen, C. Y. et al., Arch. Int. Pharmacodyn. 123, 179, (1959); Valzelli, L., Adv. Pharmacol. 5, 79 (1967)). […] The clinical correlation of this test indicates tranquillizing and anxiolytic activities as well as antiaggressive properties as such (Duncan, R. L. et al., J. Med. Chem. 13, 1 (1970)).
This type of aggression is interesting because it is known that this kind of emotional behaviour might be located in limbic structures in the brain (MacLean, P. D., Psychosom. Med. 11, 338 (1949)).
Every week male NMRI mice, weighing 20-22 g, were isolated in Makrolon cages for three weeks with diet and water ad libitum. A piece of cardboard was placed between the cages to prevent visual contact.
To test aggressiveness the mice were paired in a neutral area, a beaker (14 cm high and diameter 14 cm). A pair is considered aggressive if both the animals show clear signs of fighting within 5 min. This fighting is characterized by biting and vocalization. As soon as fighting is seen, the mice are separated and brought to their home cage. […] Animals showing no aggression are discarded. […] The test substance is administered s.c. (0.2-0.4 ml/20 g). The mice are paired 0.5 h after the injection for trials of 5 min. duration. […]

Test [2] concerns mice (NMRI). The test can be described thus: writhing test (acetic acid), analgetic properties. In kind it is in vivo. The following applies: Mus musculus, sc, read-out: ED50 (dose blocking the writhing behaviour in 50% of the animals). The method, then:
The writhing test is a frequently used test of analgetic properties (Witkin, L. B. et al., J. Pharmacol. Exp. Ther. 133, 400 (1961)). If acetic acid (0.5%, 15 ml/kg) is injected intraperitoneally in mice (NMRI) they will without exception develop a writhing behaviour characterized by stretching their hind legs. The drugs to be tested were administered subcutaneously to 6 female mice at each dose 20 min. before the injection of the acetic acid. After 10 min. The behaviour of the mice was studied in 5 min. The ED50 value is the dose blocking the writhing behaviour in 50% of the animals during the 5 min. study period.
For orientation: In writhing tests, fewer writhes than in controls are read as antinociception.

Usually ED50 stands for the dose that gives a 50% effect, or the effect in half of the subjects.

Regarding `CN1C(=O)CN=C(c2ccccc2)c2cc(Cl)ccc21` [Diazepam], the ED50 in test [1] is 6.7 mg/kg.
In the case of `CN1CC[C@]23c4c5ccc(O)c4O[C@H]2[C@@H](O)C=C[C@H]3[C@H]1C5` [Morphine], the ED50 in test [2] amounted to 1.6 mg/kg.
